Measured data: PubChem BioAssay AID686938 (Drosophila RNAi Screening Center, 2013)

Aim: 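Fly genes required for calcium entry once internal stores are emptied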 (primary screen)
Cell system: Drosophila S2R+ cells
Reagents: long dsRNA against Drosophila genes, about 0.25 µg dsRNA per well, roughly 10,000 cells
Duration: 5 days of knock-down before the calcium assay
Conditions: thapsigargin (SERCA pump blocker) to empty calcium stores; entry signal taken 4 min after adding it
Read-out: 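Duplicate raw fluo-4 intensities per well from a plate reader, at rest and four minutes after thapsigargin emptied calcium stores; entry-to-rest ratio filled for only some wells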
Direction: calcium entry signal: higher = stronger calcium signal after store depletion; resting calcium signal: higher = higher resting calcium signal
Units: calcium entry signal in fluorescence units; resting calcium signal in fluorescence units
Active means: 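Called when the plate z-score of the entry-to-rest ratio, mean of duplicates, falls below −3; wells with low overall dye signal (Fmax z below −2) or more than five off-targets excluded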
Meaning of the calls: active = strongly reduced calcium entry; inactive = no strong reduction
The deposit covers about 23,000 reagents; below is an unselected part of those that have a named target and a result. In the full data, 75 (0.33%) were called active. 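Raw plate signals without normalisation; calls rest on plate z-scores that were not deposited; ratio present for only 364 wells.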 The numbers tell different reagents against one gene apart. The record does not give: the dose of the treatment.

With knock-down of CG9853 #1, the record shows calcium entry signal, replicate 1 = 3.56e7; calcium entry signal, replicate 2 = 5.53e7; resting calcium signal, replicate 1 = 1.73e7; resting calcium signal, replicate 2 = 2.64e7; inactive.
CG9853 #2 showed calcium entry signal, replicate 1 = 2.58e7; calcium entry signal, replicate 2 = 4.50e7; resting calcium signal, replicate 1 = 1.36e7; resting calcium signal, replicate 2 = 1.95e7; inactive.
With knock-down of Afg3l2, the screen gave calcium entry signal, replicate 1 = 3.01e7; calcium entry signal, replicate 2 = 4.33e7; resting calcium signal, replicate 1 = 1.55e7; resting calcium signal, replicate 2 = 3.02e7; inactive.
With knock-down of nclb the results were calcium entry signal, replicate 1 = 3.88e7; calcium entry signal, replicate 2 = 3.36e7; resting calcium signal, replicate 1 = 1.82e7; resting calcium signal, replicate 2 = 1.66e7; inactive.
After knock-down of CG6262 #1, the record shows calcium entry signal, replicate 1 = 5.93e7; calcium entry signal, replicate 2 = 4.65e7; resting calcium signal, replicate 1 = 2.41e7; resting calcium signal, replicate 2 = 2.24e7; inactive.
For CG6262 #2, the entry reads calcium entry signal, replicate 1 = 3.62e7; calcium entry signal, replicate 2 = 3.21e7; resting calcium signal, replicate 1 = 1.82e7; resting calcium signal, replicate 2 = 1.62e7; inactive.
Against CG4611 the deposit lists calcium entry signal, replicate 1 = 2.74e7; calcium entry signal, replicate 2 = 4.48e7; resting calcium signal, replicate 1 = 1.38e7; resting calcium signal, replicate 2 = 1.94e7; inactive.
Against Daao1, the entry reads calcium entry signal, replicate 1 = 3.95e7; calcium entry signal, replicate 2 = 4.02e7; resting calcium signal, replicate 1 = 1.92e7; resting calcium signal, replicate 2 = 1.82e7; inactive.
Knock-down of Ir7d came out at: calcium entry signal, replicate 1 = 3.71e7; calcium entry signal, replicate 2 = 2.76e7; resting calcium signal, replicate 1 = 1.80e7; resting calcium signal, replicate 2 = 1.40e7; inactive.
For Ack, the entry reads calcium entry signal, replicate 1 = 4.60e7; calcium entry signal, replicate 2 = 5.44e7; resting calcium signal, replicate 1 = 2.64e7; resting calcium signal, replicate 2 = 2.63e7; inactive.
For Cyp28a5, the values are calcium entry signal, replicate 1 = 6.65e7; resting calcium signal, replicate 1 = 3.05e7; inactive.

Already shown: entries from further up.
CG9853 #1: calcium entry signal, replicate 1 = 3.56e7; calcium entry signal, replicate 2 = 5.53e7; resting calcium signal, replicate 1 = 1.73e7; resting calcium signal, replicate 2 = 2.64e7; outcome = inactive
CG9853 #2: calcium entry signal, replicate 1 = 2.58e7; calcium entry signal, replicate 2 = 4.50e7; resting calcium signal, replicate 1 = 1.36e7; resting calcium signal, replicate 2 = 1.95e7; outcome = inactive
Afg3l2: calcium entry signal, replicate 1 = 3.01e7; calcium entry signal, replicate 2 = 4.33e7; resting calcium signal, replicate 1 = 1.55e7; resting calcium signal, replicate 2 = 3.02e7; outcome = inactive

Continued:
For Pgam5-2, the values are calcium entry signal, replicate 1 = 4.00e7; calcium entry signal, replicate 2 = 4.60e7; resting calcium signal, replicate 1 = 2.04e7; resting calcium signal, replicate 2 = 2.06e7; inactive.
After knock-down of TTLL1A, the record shows calcium entry signal, replicate 1 = 3.21e7; calcium entry signal, replicate 2 = 4.08e7; resting calcium signal, replicate 1 = 1.45e7; resting calcium signal, replicate 2 = 1.63e7; inactive.
Panx gave calcium entry signal, replicate 1 = 3.06e7; calcium entry signal, replicate 2 = 5.31e7; resting calcium signal, replicate 1 = 1.50e7; resting calcium signal, replicate 2 = 2.18e7; inactive.
For Qtzl, the values are calcium entry signal, replicate 1 = 4.97e7; calcium entry signal, replicate 2 = 5.09e7; resting calcium signal, replicate 1 = 2.28e7; resting calcium signal, replicate 2 = 1.99e7; inactive.
After knock-down of RnrL, the record shows calcium entry signal, replicate 1 = 3.01e7; resting calcium signal, replicate 1 = 2.06e7; inactive.
CG31213 #1 showed calcium entry signal, replicate 1 = 2.64e7; calcium entry signal, replicate 2 = 3.34e7; resting calcium signal, replicate 1 = 3.95e7; resting calcium signal, replicate 2 = 1.57e7; inactive.
Knock-down of CG31213 #2 came out at: calcium entry signal, replicate 1 = 2.52e7; calcium entry signal, replicate 2 = 3.49e7; resting calcium signal, replicate 1 = 3.32e7; resting calcium signal, replicate 2 = 1.64e7; inactive.
GstE5 gave calcium entry signal, replicate 1 = 5.73e7; calcium entry signal, replicate 2 = 5.52e7; resting calcium signal, replicate 1 = 2.44e7; resting calcium signal, replicate 2 = 2.65e7; inactive.
ATPsyndelta gave calcium entry signal, replicate 1 = 3.11e7; calcium entry signal, replicate 2 = 4.33e7; resting calcium signal, replicate 1 = 1.93e7; resting calcium signal, replicate 2 = 2.09e7; inactive.
Knock-down of nahoda #1 resulted in: calcium entry signal, replicate 1 = 3.02e7; calcium entry signal, replicate 2 = 6.40e7; resting calcium signal, replicate 1 = 1.44e7; resting calcium signal, replicate 2 = 2.58e7; inactive.
After knock-down of nahoda #2, the record shows calcium entry signal, replicate 1 = 3.99e7; resting calcium signal, replicate 1 = 1.76e7; inactive.
